# Assay results published in article PMC7862700.
# The entries are a selection whose mix differs from that of the whole data set. For part of these data: At the low end of the ranking the order means little. The list shows a part of the results. For part of these data: Construct or isoform of the protein are uncertain.
# Molecular target: T1, GABPA (UniProt Q06546)
# T1 sequence: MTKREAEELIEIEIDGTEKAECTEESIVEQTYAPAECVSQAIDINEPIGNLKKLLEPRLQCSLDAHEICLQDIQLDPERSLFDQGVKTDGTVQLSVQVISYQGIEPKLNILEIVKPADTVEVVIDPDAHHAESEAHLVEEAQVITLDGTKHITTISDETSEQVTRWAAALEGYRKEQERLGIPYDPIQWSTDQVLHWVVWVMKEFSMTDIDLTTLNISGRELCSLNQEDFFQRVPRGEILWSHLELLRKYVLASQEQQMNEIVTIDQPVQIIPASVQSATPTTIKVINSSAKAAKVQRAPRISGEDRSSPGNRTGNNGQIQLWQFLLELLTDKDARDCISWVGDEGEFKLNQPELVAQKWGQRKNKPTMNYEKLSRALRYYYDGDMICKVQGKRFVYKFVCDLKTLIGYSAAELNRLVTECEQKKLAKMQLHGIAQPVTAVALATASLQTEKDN
# Experiment: DAPPL (digital affinity profiling via proximity ligation, sequencing)
# Details: 10 mM Tris-HCl pH 7.5, 50 mM NaCl, 1 mM DTT, 4% glycerol, room temperature, 30 min; GST-TFs on glutathione beads, 16-mer random dsDNA library, 0.1% …; high values mean tight binding; double strand, one strand shown; scale: fold enrichment (6-mer frequency, TF over GST control)
row,Sequence,binding signal
1,CAAGTC,0.826
2,CGAGAC,0.559
3,CCGGGG,0.791
4,CGGAGC,0.396
5,GACGAG,0.555
6,ACCAGG,0.726
7,GAGAGG,0.479
8,GTGACA,0.721
9,CACGAG,0.852
10,AGACTA,0.768
11,AGGATC,0.817
12,AGGGGA,0.632
13,GACCAT,0.846
14,GGAGTA,0.361
15,GACGTC,0.827
16,GGGCGT,0.403
17,AGCAGG,0.841
18,GCGTGG,0.544
19,GGATTG,0.78
20,GGACAC,0.707

row,Sequence,binding signal
1,GATTGA,0.968
2,AGTTGG,0.486
3,TGGGGA,0.898
4,TTGGAC,0.922
5,CGGGTC,0.577
6,GGGGGT,0.563
7,TTCGTG,0.894
8,AGTGTG,0.739
9,CGTAGT,0.785
10,GCAGGC,0.724
11,TGGAGG,0.518
12,GGTCGT,0.71
13,GGGTTG,0.836
14,TCGGAG,0.204
15,GGGTCT,0.92
16,GGGCAA,0.903
17,AGTGAA,0.909
18,GATGTG,0.871
19,CAGTAC,0.894

# Molecular target: T2, ETS1 (UniProt P14921)
# T2 sequence: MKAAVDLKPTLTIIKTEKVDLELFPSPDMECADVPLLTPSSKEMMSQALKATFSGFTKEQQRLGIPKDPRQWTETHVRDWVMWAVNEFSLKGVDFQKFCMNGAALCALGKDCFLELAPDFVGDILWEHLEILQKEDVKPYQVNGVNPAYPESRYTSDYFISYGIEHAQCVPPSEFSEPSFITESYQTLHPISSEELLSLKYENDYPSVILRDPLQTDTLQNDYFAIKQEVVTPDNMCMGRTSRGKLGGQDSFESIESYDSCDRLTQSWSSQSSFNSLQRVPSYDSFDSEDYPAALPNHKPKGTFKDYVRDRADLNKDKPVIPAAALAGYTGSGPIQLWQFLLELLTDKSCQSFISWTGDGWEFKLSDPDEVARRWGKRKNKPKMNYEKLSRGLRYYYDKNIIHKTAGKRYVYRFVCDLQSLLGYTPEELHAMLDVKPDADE
# Experiment: as above
# Details: 10 mM Tris-HCl pH 7.5, 50 mM NaCl, 1 mM DTT, 4% glycerol, room temperature, 30 min; GST-TFs on glutathione beads, 16-mer random dsDNA library, 0.1% …; high values mean tight binding; double strand, one strand shown; scale: fold enrichment (6-mer frequency, TF over GST control)
row,Sequence,binding signal
1,CAAGTC,0.916
2,CGAGAC,0.584
3,CCGGGG,0.72
4,CGGAGC,0.381
5,GACGAG,0.554
6,ACCAGG,0.71
7,GAGAGG,0.498
8,GTGACA,0.736
9,CACGAG,0.844
10,AGACTA,0.74
11,AGGATC,0.799
12,AGGGGA,0.605
13,GACCAT,0.833
14,GGAGTA,0.352
15,GACGTC,0.87
16,GGGCGT,0.498
17,AGCAGG,0.88
18,GCGTGG,0.545
19,GGATTG,0.849
20,GGACAC,0.735

row,Sequence,binding signal
1,GATTGA,0.975
2,AGTTGG,0.466
3,TGGGGA,0.775
4,TTGGAC,0.873
5,CGGGTC,0.755
6,GGGGGT,0.566
7,TTCGTG,0.961
8,AGTGTG,0.65
9,CGTAGT,0.879
10,GCAGGC,0.716
11,TGGAGG,0.484
12,GGTCGT,0.619
13,GGGTTG,0.896
14,TCGGAG,0.192
15,GGGTCT,1.06
16,GGGCAA,0.856
17,AGTGAA,0.927
18,GATGTG,0.856
19,CAGTAC,0.788

# Molecular target: T3, SPDEF (UniProt O95238)
# T3 sequence: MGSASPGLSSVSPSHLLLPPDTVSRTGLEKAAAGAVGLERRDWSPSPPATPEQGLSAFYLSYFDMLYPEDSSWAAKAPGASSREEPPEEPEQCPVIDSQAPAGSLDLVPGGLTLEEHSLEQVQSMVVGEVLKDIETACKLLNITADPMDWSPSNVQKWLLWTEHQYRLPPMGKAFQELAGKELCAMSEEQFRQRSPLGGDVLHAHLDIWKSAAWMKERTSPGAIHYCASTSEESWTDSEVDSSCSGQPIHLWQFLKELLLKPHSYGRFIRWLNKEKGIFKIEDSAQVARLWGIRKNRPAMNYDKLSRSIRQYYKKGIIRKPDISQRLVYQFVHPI
# Experiment: as above
# Details: 10 mM Tris-HCl pH 7.5, 50 mM NaCl, 1 mM DTT, 4% glycerol, room temperature, 30 min; GST-TFs on glutathione beads, 16-mer random dsDNA library, 0.1% …; high values mean tight binding; double strand, one strand shown; scale: fold enrichment (6-mer frequency, TF over GST control)
row,Sequence,binding signal
1,CAAGTC,0.833
2,CGAGAC,0.56
3,CCGGGG,0.908
4,CGGAGC,0.415
5,GACGAG,0.566
6,ACCAGG,0.818
7,GAGAGG,0.494
8,GTGACA,0.767
9,CACGAG,0.819
10,AGACTA,0.74
11,AGGATC,1.2
12,AGGGGA,0.524
13,GACCAT,0.788
14,GGAGTA,0.35
15,GACGTC,0.823
16,GGGCGT,0.491
17,AGCAGG,0.852
18,GCGTGG,0.541
19,GGATTG,0.86
20,GGACAC,0.846

row,Sequence,binding signal
1,GATTGA,0.916
2,AGTTGG,0.449
3,TGGGGA,0.669
4,TTGGAC,0.902
5,CGGGTC,0.917
6,GGGGGT,0.501
7,TTCGTG,0.91
8,AGTGTG,0.65
9,CGTAGT,0.834
10,GCAGGC,0.62
11,TGGAGG,0.441
12,GGTCGT,0.615
13,GGGTTG,0.849
14,TCGGAG,0.181
15,GGGTCT,1.01
16,GGGCAA,0.899
17,AGTGAA,0.827
18,GATGTG,1.18
19,CAGTAC,0.777
